Laboratory results: patent publication US20170298121A1 (GlaxoSmithKline, published 2017)
These are yes or no findings as the source states them, for the method shown. Some entries that bind do so weakly or less than the wild type.

Chains of the proteins cited; added tags and fusions are not shown. Residues count along the entry.
UniProt P02770, residues 25-608: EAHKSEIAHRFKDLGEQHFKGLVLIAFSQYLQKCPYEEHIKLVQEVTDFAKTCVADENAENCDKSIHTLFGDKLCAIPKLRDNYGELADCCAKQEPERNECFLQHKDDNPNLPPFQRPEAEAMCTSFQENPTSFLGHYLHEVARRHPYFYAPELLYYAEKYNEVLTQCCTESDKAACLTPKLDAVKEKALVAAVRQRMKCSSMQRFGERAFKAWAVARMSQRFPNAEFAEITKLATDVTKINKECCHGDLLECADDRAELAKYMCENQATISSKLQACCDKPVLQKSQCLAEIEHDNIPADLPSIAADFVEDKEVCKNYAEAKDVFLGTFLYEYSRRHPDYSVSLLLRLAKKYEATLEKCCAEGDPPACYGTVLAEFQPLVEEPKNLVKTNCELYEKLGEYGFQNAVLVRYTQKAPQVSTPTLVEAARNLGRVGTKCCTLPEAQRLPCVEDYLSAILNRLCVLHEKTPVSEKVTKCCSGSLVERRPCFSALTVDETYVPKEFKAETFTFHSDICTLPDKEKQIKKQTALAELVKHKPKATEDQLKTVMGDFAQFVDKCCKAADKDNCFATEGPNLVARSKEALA
UniProt P07724, residues 25-608: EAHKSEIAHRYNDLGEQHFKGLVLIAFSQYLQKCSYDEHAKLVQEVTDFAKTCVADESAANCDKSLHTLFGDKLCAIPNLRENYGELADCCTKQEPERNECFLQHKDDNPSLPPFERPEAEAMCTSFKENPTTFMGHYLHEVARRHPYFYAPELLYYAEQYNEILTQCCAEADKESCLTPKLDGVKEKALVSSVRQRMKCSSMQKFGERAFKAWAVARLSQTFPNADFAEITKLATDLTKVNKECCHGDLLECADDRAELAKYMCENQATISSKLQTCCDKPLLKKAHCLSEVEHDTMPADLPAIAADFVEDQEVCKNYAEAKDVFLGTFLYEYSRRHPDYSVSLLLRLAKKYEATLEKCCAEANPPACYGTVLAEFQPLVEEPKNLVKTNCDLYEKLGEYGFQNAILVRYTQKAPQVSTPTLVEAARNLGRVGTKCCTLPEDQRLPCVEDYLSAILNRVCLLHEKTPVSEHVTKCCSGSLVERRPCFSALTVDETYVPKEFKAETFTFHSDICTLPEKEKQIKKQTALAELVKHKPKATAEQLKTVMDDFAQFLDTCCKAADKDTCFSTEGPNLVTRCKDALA

Columns and labels:
[1] = biological target: Rat Serum Albumin (rat) (UniProt P02770); test: SPR (BiaCore), purified dAb at 1 µM, 500 nM, 50 nM
[2] = biological target: mouse serum albumin (mouse) (UniProt P07724); test: SPR (BiaCore), purified dAb at 1 µM, 500 nM, 50 nM

binding [1]: binds | binding [2]: binds
B1: DOM7h-11-3 (protein)
VL: DIQMTQSPSSLSASVGDRVTITCRASRPIGTTLSWYQQKPGKAPKLLILWNSRLQSGVPSRFSGSGSGTDFTLTISSLQPEDFATYYCAQAGTHPTTFGQGTKVEIKR
